Results are given in words; binding and its absence hold for the method and conditions named. Binding seen in cells or lysates may run through a third protein. Some results given as binding are weak or reduced against the parent protein; the word gives no strength.
How the values were obtained:
[1] = target: androgen receptor (human (endogenous in JN-DSRCT-1 and BER-DSRCT)) (UniProt P10275); assay: co-IP; nuclear extracts of BER-DSRCT cells overexpressing FLAG-tagged EWSR1 or WT1; immunoprecipitation with anti-AR or control antibody, protein G magnetic beads, Western blot
[2] = target: wildtype EWSR1 (human (endogenous in JN-DSRCT-1 and BER-DSRCT)) (UniProt Q01844); assay: co-IP; reverse immunoprecipitation: nuclear extracts of BER-DSRCT and JN-DSRCT-1 cells, endogenous proteins; N-term EWSR1 antibody, protein G magnetic beads, Western blot
[3] = target: androgen receptor (human (endogenous in JN-DSRCT-1 and BER-DSRCT)) (UniProt P10275); assay: co-IP; nuclear extracts (0.3 M NaCl high salt buffer) of JN-DSRCT-1 and BER-DSRCT cells, endogenous proteins; overnight at 4 °C with 2 μg anti-AR antibody or IgG control, protein G magnetic beads, Western blot

Chains of the proteins cited; added tags and fusions are not shown.
UniProt P10275: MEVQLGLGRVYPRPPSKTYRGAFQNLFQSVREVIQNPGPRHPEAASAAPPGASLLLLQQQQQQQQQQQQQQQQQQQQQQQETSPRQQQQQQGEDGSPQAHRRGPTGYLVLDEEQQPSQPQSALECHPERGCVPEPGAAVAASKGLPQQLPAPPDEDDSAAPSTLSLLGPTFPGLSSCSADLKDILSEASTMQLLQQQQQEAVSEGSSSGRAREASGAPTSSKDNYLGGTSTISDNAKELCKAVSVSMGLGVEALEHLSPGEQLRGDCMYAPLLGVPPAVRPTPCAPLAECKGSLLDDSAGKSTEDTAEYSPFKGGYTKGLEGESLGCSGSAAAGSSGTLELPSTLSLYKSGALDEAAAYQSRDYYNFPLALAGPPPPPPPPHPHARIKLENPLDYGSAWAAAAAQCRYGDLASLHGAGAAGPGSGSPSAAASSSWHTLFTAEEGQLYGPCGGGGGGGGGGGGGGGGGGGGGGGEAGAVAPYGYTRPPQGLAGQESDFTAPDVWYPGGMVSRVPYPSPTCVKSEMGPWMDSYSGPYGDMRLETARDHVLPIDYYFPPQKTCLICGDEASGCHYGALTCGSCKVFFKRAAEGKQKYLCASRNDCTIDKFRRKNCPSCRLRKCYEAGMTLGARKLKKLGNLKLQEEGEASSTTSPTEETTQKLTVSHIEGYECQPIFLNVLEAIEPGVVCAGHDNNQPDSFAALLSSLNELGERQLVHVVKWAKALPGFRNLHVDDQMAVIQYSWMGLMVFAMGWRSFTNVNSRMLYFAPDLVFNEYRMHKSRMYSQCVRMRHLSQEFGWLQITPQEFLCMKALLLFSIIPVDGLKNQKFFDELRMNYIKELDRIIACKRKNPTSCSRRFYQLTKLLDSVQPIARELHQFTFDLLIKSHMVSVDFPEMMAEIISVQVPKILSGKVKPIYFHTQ
UniProt Q01844: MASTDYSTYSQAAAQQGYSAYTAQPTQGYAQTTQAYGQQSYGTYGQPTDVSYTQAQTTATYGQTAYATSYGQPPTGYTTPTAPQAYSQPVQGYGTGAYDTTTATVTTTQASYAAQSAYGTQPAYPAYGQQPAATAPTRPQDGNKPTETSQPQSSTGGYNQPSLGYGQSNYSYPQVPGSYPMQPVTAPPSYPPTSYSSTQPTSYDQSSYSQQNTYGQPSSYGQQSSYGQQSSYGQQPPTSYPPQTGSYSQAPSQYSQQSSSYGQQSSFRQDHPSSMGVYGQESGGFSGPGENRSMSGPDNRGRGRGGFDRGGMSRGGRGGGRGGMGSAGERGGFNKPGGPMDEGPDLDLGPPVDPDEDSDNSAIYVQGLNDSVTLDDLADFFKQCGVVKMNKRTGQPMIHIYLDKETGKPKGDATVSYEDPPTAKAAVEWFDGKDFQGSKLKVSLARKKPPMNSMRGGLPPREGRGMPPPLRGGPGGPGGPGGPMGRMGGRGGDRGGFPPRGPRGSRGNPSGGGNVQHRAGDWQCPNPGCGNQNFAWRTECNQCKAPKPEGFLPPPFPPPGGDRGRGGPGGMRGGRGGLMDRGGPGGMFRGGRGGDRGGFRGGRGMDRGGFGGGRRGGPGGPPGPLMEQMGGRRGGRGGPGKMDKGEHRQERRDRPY

| Substance | binding [1] | further results |
| --- | --- | --- |
| FLAG-tagged EWSR1 (from UniProt Q01844 1-656) | binds |  |
| FLAG-tagged WT1 (from UniProt P19544 1-449) | no binding |  |
| androgen receptor (from UniProt P10275 1-920) |  | binding [2]: binds |
| wildtype EWSR1 (from UniProt Q01844 1-656) |  | binding [3]: binds |

Source: paper PMC10995187
